PubChem BioAssay AID686938 – Drosophila RNAi Screening Center – 2013
Aim: 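Knock-downs reducing store-operated calcium influx in Drosophila cells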 (primary screen). Cells: Drosophila S2R+ cells. Knock-down reagent: long dsRNA against Drosophila genes, about 0.25 µg dsRNA per well, roughly 10,000 cells. Time to read-out: 5 days of knock-down before the calcium assay. Conditions: thapsigargin (SERCA pump blocker) to empty calcium stores; entry signal taken 4 min after adding it. Measurement: 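Per-well fluo-4 fluorescence in two replicates, unnormalised, measured in resting cells and 4 min after store depletion by the SERCA blocker thapsigargin; ratio of the two present in few wells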. Direction: calcium entry signal: higher = stronger calcium signal after store depletion; resting calcium signal: higher = higher resting calcium signal. Units: calcium entry signal in fluorescence units; resting calcium signal in fluorescence units. Active means: 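Hit if the duplicate-averaged plate z-score for entry over resting signal is under −3; wells with weak total dye signal (Fmax z < −2) or more than 5 off-targets removed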. Calls: active = strongly reduced calcium entry; inactive = no strong reduction.
In all, the deposit lists about 23,000 reagents; this is a random part of those with a known target gene and a result. Of all reagents, 75 (0.33%) were called active. 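Raw plate signals without normalisation; calls rest on plate z-scores that were not deposited; ratio present for only 364 wells.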 Not given: the dose of the treatment.

For GMF (Glia maturation factor) [DRSC01928] the deposit lists calcium entry signal, replicate 1 = 4.85e7; resting calcium signal, replicate 1 = 2.35e7; inactive. Against Gr85a (Gustatory receptor 85a) [DRSC12760] the deposit lists calcium entry signal, replicate 1 = 2.41e7; calcium entry signal, replicate 2 = 3.13e7; resting calcium signal, replicate 1 = 1.24e7; resting calcium signal, replicate 2 = 1.37e7; inactive. CG31157 [DRSC21832] gave calcium entry signal, replicate 1 = 3.16e7; calcium entry signal, replicate 2 = 3.39e7; resting calcium signal, replicate 1 = 1.77e7; resting calcium signal, replicate 2 = 1.50e7; inactive. With knock-down of Clbn (Caliban) [DRSC14404] the results were calcium entry signal, replicate 1 = 4.17e7; calcium entry signal, replicate 2 = 5.22e7; resting calcium signal, replicate 1 = 2.23e7; resting calcium signal, replicate 2 = 2.03e7; inactive. After knock-down of mthl3 (methuselah-like 3) [DRSC06997], the record shows calcium entry signal, replicate 1 = 2.83e7; calcium entry signal, replicate 2 = 2.81e7; resting calcium signal, replicate 1 = 1.35e7; resting calcium signal, replicate 2 = 1.44e7; inactive. For put (punt) [DRSC17039], the values are calcium entry signal, replicate 1 = 3.03e7; calcium entry signal, replicate 2 = 4.14e7; resting calcium signal, replicate 1 = 1.33e7; resting calcium signal, replicate 2 = 1.82e7; inactive.

Dyro (Dpt-YFP repressor by overexpression) [DRSC10598] scored calcium entry signal, replicate 1 = 3.07e7; calcium entry signal, replicate 2 = 5.09e7; resting calcium signal, replicate 1 = 1.70e7; resting calcium signal, replicate 2 = 2.27e7; inactive. Against lectin-33A [DRSC02529], the entry reads calcium entry signal, replicate 1 = 2.54e7; calcium entry signal, replicate 2 = 3.94e7; resting calcium signal, replicate 1 = 1.32e7; resting calcium signal, replicate 2 = 1.84e7; inactive. Silencing of lectin-33A [DRSC22116] resulted in: calcium entry signal, replicate 1 = 2.19e7; calcium entry signal, replicate 2 = 4.93e7; resting calcium signal, replicate 1 = 1.13e7; resting calcium signal, replicate 2 = 2.20e7; inactive. Flad1 (Flavin adenine dinucleotide synthetase 1) [DRSC19898] showed calcium entry signal, replicate 1 = 4.20e7; calcium entry signal, replicate 2 = 4.06e7; resting calcium signal, replicate 1 = 1.97e7; resting calcium signal, replicate 2 = 1.82e7; inactive. For Inx7 (Innexin 7) [DRSC18784] the deposit lists calcium entry signal, replicate 1 = 3.04e7; calcium entry signal, replicate 2 = 5.14e7; resting calcium signal, replicate 1 = 1.61e7; resting calcium signal, replicate 2 = 2.34e7; inactive. strat (stratum) [DRSC03069] scored calcium entry signal, replicate 1 = 4.55e7; calcium entry signal, replicate 2 = 8.19e7; resting calcium signal, replicate 1 = 2.09e7; resting calcium signal, replicate 2 = 3.26e7; inactive.

Single entries from above.
Dyro (Dpt-YFP repressor by overexpression) [DRSC10598], resting calcium signal, replicate 1: 1.70e7
Flad1 (Flavin adenine dinucleotide synthetase 1) [DRSC19898], calcium entry signal, replicate 1 → 4.20e7
